Results as given in paper PMC6001375, “CLERK is a novel receptor kinase required for sensing of root-active CLE peptides in Arabidopsis” (Development (Cambridge, England), 2018).
Results are given in words; binding and its absence hold for the method and conditions named. Values belong to the binder of their own block, whether it stands above or below them.

What was measured:
[1] = target: T1, PHLOEM … WITH XYLEM (PXY) ectodomain (Arabidopsis thaliana) (UniProt Q9FII5); test: condition: 100 µg NIK2-ECD, equimolar PXY-ECD, with 50 µM CLE41; SEC; analytical gel filtration, Superdex 200 Increase 10/300 GL, 20 mM citrate (pH 5.0), 150 mM NaCl; 100 µg of each NIK-ECD, CLERK-ECD or At5G63710-ECD mixed with equimolar BAM1-ECD, BAM3-ECD or PXY-ECD and 50 µM CLE9, CLE45 or CLE41 peptide, respectively; fractions on Coomassie-stained gels; both purified
T1 sequence: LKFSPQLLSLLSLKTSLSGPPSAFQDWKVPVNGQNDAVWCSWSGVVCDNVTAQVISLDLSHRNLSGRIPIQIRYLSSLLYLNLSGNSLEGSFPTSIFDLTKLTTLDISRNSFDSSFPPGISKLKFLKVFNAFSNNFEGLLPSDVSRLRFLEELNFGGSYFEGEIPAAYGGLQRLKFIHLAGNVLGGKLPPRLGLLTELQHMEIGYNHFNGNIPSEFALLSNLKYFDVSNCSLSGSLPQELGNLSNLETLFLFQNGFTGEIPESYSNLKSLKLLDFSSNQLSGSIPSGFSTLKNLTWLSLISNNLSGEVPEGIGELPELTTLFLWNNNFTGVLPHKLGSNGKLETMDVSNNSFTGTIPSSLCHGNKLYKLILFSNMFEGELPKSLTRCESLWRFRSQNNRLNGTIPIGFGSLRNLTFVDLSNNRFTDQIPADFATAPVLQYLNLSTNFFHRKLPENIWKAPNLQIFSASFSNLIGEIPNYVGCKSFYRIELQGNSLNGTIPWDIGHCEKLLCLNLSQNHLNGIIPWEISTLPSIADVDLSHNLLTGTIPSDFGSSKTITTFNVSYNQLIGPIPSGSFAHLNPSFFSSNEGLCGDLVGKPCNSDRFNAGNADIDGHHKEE

[2] = target: T2, BARELY ANY MERISTEM 3 (BAM3) ectodomain (Arabidopsis thaliana) (UniProt O65440); test: condition: 100 µg NIK2-ECD, equimolar BAM3-ECD, with 50 µM CLE45; SEC; analytical gel filtration, Superdex 200 Increase 10/300 GL, 20 mM citrate (pH 5.0), 150 mM NaCl; 100 µg of each NIK-ECD, CLERK-ECD or At5G63710-ECD mixed with equimolar BAM1-ECD, BAM3-ECD or PXY-ECD and 50 µM CLE9, CLE45 or CLE41 peptide, respectively; fractions on Coomassie-stained gels; both purified
T2 sequence: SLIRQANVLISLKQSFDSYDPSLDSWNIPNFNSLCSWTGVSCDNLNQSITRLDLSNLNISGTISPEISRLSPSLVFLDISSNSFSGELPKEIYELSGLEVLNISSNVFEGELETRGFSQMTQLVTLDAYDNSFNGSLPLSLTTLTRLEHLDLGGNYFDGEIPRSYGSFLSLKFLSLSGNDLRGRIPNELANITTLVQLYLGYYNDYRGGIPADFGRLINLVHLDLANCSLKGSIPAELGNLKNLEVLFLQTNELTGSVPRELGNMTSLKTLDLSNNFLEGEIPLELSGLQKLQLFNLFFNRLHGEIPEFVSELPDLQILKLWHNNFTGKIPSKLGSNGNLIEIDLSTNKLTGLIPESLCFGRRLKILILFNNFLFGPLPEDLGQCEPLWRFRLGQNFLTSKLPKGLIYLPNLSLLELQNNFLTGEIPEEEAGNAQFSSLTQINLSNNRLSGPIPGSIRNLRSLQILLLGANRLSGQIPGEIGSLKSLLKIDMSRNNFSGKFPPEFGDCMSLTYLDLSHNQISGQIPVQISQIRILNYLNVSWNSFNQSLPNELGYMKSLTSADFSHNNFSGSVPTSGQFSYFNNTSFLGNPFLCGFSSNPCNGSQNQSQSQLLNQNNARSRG

[3] = target: T3, BARELY ANY MERISTEM 1 (BAM1) ectodomain (Arabidopsis thaliana) (UniProt O49545); test: condition: 100 µg NIK2-ECD, equimolar BAM1-ECD, with 50 µM CLE9; SEC; analytical gel filtration, Superdex 200 Increase 10/300 GL, 20 mM citrate (pH 5.0), 150 mM NaCl; 100 µg of each NIK-ECD, CLERK-ECD or At5G63710-ECD mixed with equimolar BAM1-ECD, BAM3-ECD or PXY-ECD and 50 µM CLE9, CLE45 or CLE41 peptide, respectively; fractions on Coomassie-stained gels; both purified
T3 sequence: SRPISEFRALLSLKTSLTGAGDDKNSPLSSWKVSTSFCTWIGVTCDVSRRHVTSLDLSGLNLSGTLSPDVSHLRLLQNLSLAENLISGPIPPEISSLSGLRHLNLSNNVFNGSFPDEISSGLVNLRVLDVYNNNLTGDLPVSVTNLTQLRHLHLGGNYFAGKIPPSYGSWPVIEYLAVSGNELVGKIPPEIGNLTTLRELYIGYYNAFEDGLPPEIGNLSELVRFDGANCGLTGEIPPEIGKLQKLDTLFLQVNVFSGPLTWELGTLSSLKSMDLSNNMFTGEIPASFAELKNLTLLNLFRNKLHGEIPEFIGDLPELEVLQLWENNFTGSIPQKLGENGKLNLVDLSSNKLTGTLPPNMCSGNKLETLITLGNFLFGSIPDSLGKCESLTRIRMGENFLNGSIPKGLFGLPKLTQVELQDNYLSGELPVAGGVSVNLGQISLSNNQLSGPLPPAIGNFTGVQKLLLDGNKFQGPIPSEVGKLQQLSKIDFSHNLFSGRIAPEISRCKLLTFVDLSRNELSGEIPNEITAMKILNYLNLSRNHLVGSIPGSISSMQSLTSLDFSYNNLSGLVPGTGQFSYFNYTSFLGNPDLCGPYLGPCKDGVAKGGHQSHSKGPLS

[4] = target: T2, BARELY ANY MERISTEM 3 (BAM3) ectodomain (Arabidopsis thaliana); test: condition: 100 µg NIK1-ECD, equimolar BAM3-ECD, with 50 µM CLE45; SEC; analytical gel filtration, Superdex 200 Increase 10/300 GL, 20 mM citrate (pH 5.0), 150 mM NaCl; 100 µg of each NIK-ECD, CLERK-ECD or At5G63710-ECD mixed with equimolar BAM1-ECD, BAM3-ECD or PXY-ECD and 50 µM CLE9, CLE45 or CLE41 peptide, respectively; fractions on Coomassie-stained gels; both purified
[5] = target: T1, PHLOEM … WITH XYLEM (PXY) ectodomain (Arabidopsis thaliana); test: condition: 100 µg NIK1-ECD, equimolar PXY-ECD, with 50 µM CLE41; SEC; analytical gel filtration, Superdex 200 Increase 10/300 GL, 20 mM citrate (pH 5.0), 150 mM NaCl; 100 µg of each NIK-ECD, CLERK-ECD or At5G63710-ECD mixed with equimolar BAM1-ECD, BAM3-ECD or PXY-ECD and 50 µM CLE9, CLE45 or CLE41 peptide, respectively; fractions on Coomassie-stained gels; both purified
[6] = target: T3, BARELY ANY MERISTEM 1 (BAM1) ectodomain (Arabidopsis thaliana); test: condition: 100 µg NIK1-ECD, equimolar BAM1-ECD, with 50 µM CLE9; SEC; analytical gel filtration, Superdex 200 Increase 10/300 GL, 20 mM citrate (pH 5.0), 150 mM NaCl; 100 µg of each NIK-ECD, CLERK-ECD or At5G63710-ECD mixed with equimolar BAM1-ECD, BAM3-ECD or PXY-ECD and 50 µM CLE9, CLE45 or CLE41 peptide, respectively; fractions on Coomassie-stained gels; both purified

binding [1]: no binding | binding [2]: no binding | binding [3]: no binding
B1: NSP-… KINASE 2 (NIK2) ectodomain (domain or fragment, UniProt Q8RY65 33-248)
chain: ELTDKGVNFEVVALIGIKSSLTDPHGVLMNWDDTAVDPCSWNMITCSDGFVIRLEAPSQNLSGTLSSSIGNLTNLQTVLLQNNYITGNIPHEIGKLMKLKTLDLSTNNFTGQIPFTLSYSKNLQYLRVNNNSLTGTIPSSLANMTQLTFLDLSYNNLSGPVPRSLAKTFNVMGNSQICPTGTEKDCNGTQPKPMSITLNSSQNKSSDGGTKNRKIA

binding [4]: no binding | binding [5]: no binding | binding [6]: no binding
B2: NSP-… KINASE 1 (NIK1) ectodomain (domain or fragment, UniProt Q9LFS4 32-248)
chain: LLSPKGVNFEVQALMDIKASLHDPHGVLDNWDRDAVDPCSWTMVTCSSENFVIGLGTPSQNLSGTLSPSITNLTNLRIVLLQNNNIKGKIPAEIGRLTRLETLDLSDNFFHGEIPFSVGYLQSLQYLRLNNNSLSGVFPLSLSNMTQLAFLDLSYNNLSGPVPRFAAKTFSIVGNPLICPTGTEPDCNGTTLIPMSMNLNQTGVPLYAGGSRNHKMA
